# Single values of this data set are uncertain.
# B1: human tRNA-Pro; a variant is named by its letters at N, in order (parent)
# chain: GGCTCGTTGGTCTAGNGGTATGATTCTCGCTTAGGGTGCGAGAGGTCCCGGGTTCNNATCCCGGACGAGCCC
# Key:
# [1] = variants of: B1; experiment: tRNA Pol-III promoter activity, log2 (circRNA frequency / plasmid DNA frequency) (log2 ratio); higher = stronger promoter activity; conditions: HEK293T; construct: no Pol-II promoter ((-)CMV library)
# [2] = variants of: B1; experiment: tRNA 3' processing efficiency (processed reads / all reads, maximum-likelihood estimate) (fraction); higher = more efficient 3' processing; conditions: HEK293T; construct: no Pol-II promoter ((-)CMV library)
# [3] = variants of: B1; experiment: tRNA 5' processing efficiency (processed reads / all reads, maximum-likelihood estimate) (fraction); higher = more efficient 5' processing; conditions: HEK293T; construct: CMV Pol-II promoter ((+)CMV library, decapped)
Variant,tRNA Pol-III promoter activity (log2) [1],tRNA 3' processing efficiency [2],tRNA 5' processing efficiency [3]
GAA T8C T19C,1.18,0.3,0.5
CAA T53G,2.72,0.29,
AAG T59A,3.19,0.33,
GAT G15C A20T,4.08,0.73,
TAG G15A,4.93,0.3,
GAT T19A T59C,4,0.25,
GAA G9A G17T A58C,4.21,0.5,
GAA C55T T59G,0.394,0.3,
AAA A14G A58T,5.46,0.2,
TTA G15A A58T,9.42,0.04,
GAC G15T T19A,3.4,0.33,
GAG T19A T59C,5.89,0.45,
GAA G9T G18T T59G,4.21,0.17,
GGT G15A,2.45,0.2,
GAA A14C G18A A58G,4.43,0.29,
TTA A14T A58T,6.93,0.38,
GAA A14T G18T A20G T53A,3.93,0.25,
GAA G9A G15A T59G,3.34,0.25,
GAA G17A,-4.03,0.4,0.39
GAA A14C C55T A58C,3.41,0.14,
TAA A14G A58T,3.94,0.53,
GTA G15C G17T A20T,6.51,0.17,
GCA A20C A58G,6.75,0.57,

Variant,tRNA Pol-III promoter activity (log2) [1],tRNA 3' processing efficiency [2],tRNA 5' processing efficiency [3]
GAA G15A T19A T54A T59C,6.26,0.2,
AAA G17A T19A,3.54,0.27,
GAA G9T A58C T59C,4.16,0.57,
GAT A20T,0.738,0.27,
GAA G15T,-3.6,0.59,0.2
GAA G9A G15A A58T,3.36,0.4,
AAA T19A C55T A58T,6.64,0.15,
GTA T59C,2.83,0.43,
GGA A14G T54A T59C,4.26,0.4,
GAA G15C T59G,2.58,0.33,
GAC A14C,2.6,0.29,
GGT A14G T59C,7.75,0.07,
GAA G9A A14C A58T,7.03,0.62,
GAA G9T T19A A58T,2.12,0.25,
GAA T19A A20G A58C,3.29,0.56,
CCA T8C A14T G15A T59A,5.71,0.06,
GAG T8A A20T,3.43,0.29,
TTA G15A A58T T59A,7.93,0.13,
CTA G9T,3.51,0.67,
AAA T8G T53A,2.9,0.4,
ATA G17A A20C,3.71,0.25,
AAA T19A A20G,4.03,0.7,
GAA A14G A58C,2.25,0.38,

# 3 entries from above, as tab-separated lines:
Variant	tRNA Pol-III promoter activity (log2) [1]	tRNA 3' processing efficiency [2]	tRNA 5' processing efficiency [3]
GTA T59C	2.83	0.43	
GGA A14G T54A T59C	4.26	0.4	
GAA G15C T59G	2.58	0.33	

# Continuation.

Variant,tRNA Pol-III promoter activity (log2) [1],tRNA 3' processing efficiency [2],tRNA 5' processing efficiency [3]
GTT,2.87,0.36,
GTA T8A G17C,3.86,0.25,
GAC G17T A58C,2.53,0.56,
TGA T54A,2.7,0.17,
GAA C55T A58G,-0.713,0.43,
CAC A20T,3.43,0.29,
GGA T8C A14G T59G,5.53,0.33,
GAA A14G A58G T59A,6,0.31,
GAA A20G C55G,-0.073,0.17,
GAA T8C A58C,0.0112,0.25,
CTA G9T A58C,4.26,0.4,
GAT G15A G18A,2.47,0.45,
GAT C55G,-0.666,0.17,
GAA G9A A20T T53G,1.85,0.25,
GAA G9A T19C T53C,5.62,0.5,
GGA T53G A58T,4.39,0.4,
TAC A20T,5.36,0.2,
GAC A20T A58T,3.12,0.67,
CAA T19C,1.17,0.67,
AAA G9A G15A T19C,5.53,0.67,
GAA G15C G17A T19G T53G,5.77,0.2,
CAT A14G,5.38,0.23,
GAA G9A T53A,1.53,0.22,

Variant,tRNA Pol-III promoter activity (log2) [1],tRNA 3' processing efficiency [2],tRNA 5' processing efficiency [3]
GAG G9T,0.287,0.56,
CCC,4.68,0.1,
GAA T8C G9C G15T T54G C55T A58C,4.79,0.78,
GTC G9T,1.3,0.25,
GAA T8C G9A G18A,3.29,0.14,
CAA G9C G18T,3.61,0.75,
GTA T8A A58T,3.55,0.4,
GAG G18A T19A,3.26,0.43,
GAA G17T A58C,0.732,0.42,0.25
GAA A20C T54G,1.69,0.75,
GAA G18C,-4.14,0.5,0.26
GAA A14C G15C T53A A58T,5.62,0.17,
CAA G17T T53A,1.81,0.5,
GTA G9A A20T T59A,5.64,0.62,
GAA T8C A58G T59A,4.68,0.4,
CAA T54G C55T,4.56,0.77,
CAC A58G,3.26,0.4,
GAA T54A A58G,1.47,0.46,
TTA T19A,3.63,0.42,
GAA A20G A58G T59C,5.39,0.32,
TTA C55G,3.23,0.75,
GTA T59G,0.908,0.44,
GGA A14C G15C T59C,6.53,0.5,

Variant,tRNA Pol-III promoter activity (log2) [1],tRNA 3' processing efficiency [2],tRNA 5' processing efficiency [3]
ATA A14C A58T,5.84,0.29,
GAA T8C G9A G18A A20T T54A,5.53,0.67,
CAA A20T A58G,2.93,0.4,
GAA A14C G18A A20C,4.51,0.33,
AAA,-0.271,0.75,0.33
TAA G15C T59A,2.12,0.25,
TAA G18C A58C,4.36,0.4,
GGA G18A,0.242,0.67,
TTT,3.18,0.32,
GTA A20C A58G,4.09,0.21,
GTA G17C A58T,2.78,0.38,
GAA A14C A58T,2.22,0.25,
GAA T8C A14T T19A A58G,5.74,0.57,
GAA A14G T19A,-1.21,0.25,0.33
CAA T19C T54A,4.67,0.4,
GAT T53A,1.88,0.24,
GAA T8C A14G G15C,3.13,0.25,
GAC T19C A58G,4.84,0.29,
CAC T19G,5.32,0.15,0.25
GAA A14G A20G T59C,3.61,0.29,0.25
AAA G15A C55T,1.4,0.25,

# — the supplement of paper PMC6445147
